This data set is described as follows: general procedure: Fmoc solid-phase peptide synthesis in flow; PEG-PS resin; HATU/DIEA; cysteine as preformed pentafluorophenyl ester. As to conditions: cyclisation step, on acyclic oxidized precursor, hydrochloride salt.

As for “Gly-Phe-Cys-Arg-Cys-Leu-Cys-Arg-Arg-Gly-Val-Cys-Arg-Cys-Ile-Cys-Thr-Arg.”, the cyclisation yield was 56.6%.

The values above are taken from patent US6890537B2 (The Regents of the University of California, priority 1999, dated 2005).
